Data taken from US20140186344A1 (TRUSTEES OF BOSTON UNIVERSITY, published 2014).
Results are given in words; binding and its absence hold for the method and conditions named. Some binding calls cover weakened binding; strength is not graded here. No end group written: not given here. *: point of attachment. 125I = [125I]*

Amino acid sequences for entries named in this document (tags omitted). Residues count along the entry.
UniProt P05305, residues 53-73: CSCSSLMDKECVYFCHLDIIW

Legend:
[1] = target: T1, Dahl R Dear S44P/M74T variant (rat Dual Endothelin-1/Angiotensin II Receptor) (rat (Dahl R/JRHsd)) (UniProt D3ZGZ6); assay: direct radioligand binding and west-western blot
T1 sequence: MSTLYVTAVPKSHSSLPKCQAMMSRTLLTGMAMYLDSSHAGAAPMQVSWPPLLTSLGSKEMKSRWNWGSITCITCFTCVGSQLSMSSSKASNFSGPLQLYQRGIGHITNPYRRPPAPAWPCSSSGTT

[2] = target: T1, Dahl R Dear S44P/M74T variant (rat Dual Endothelin-1/Angiotensin II Receptor) (rat (Dahl R/JRHsd)); assay: west-western blot of kidney and Cos1 transfectant membranes

B1: [125I]Tyr13-endothelin-1 (peptide, UniProt P05305 53-73, looked up)
peptide: CSCSSLMDKECVY(125I)FCHLDIIW
modifications: ends and bridges not checked
notes: mature; Radiolabelled ligand; also called ET-1
binding [1]: binds
binding [2]: binds
